Laboratory results as given in the supplement of paper PMC11006884.
Only a part is listed here, and it is no random draw.

By UniProt entry, the sequences of proteins in these tests, tags left out. Where a name states a change or a piece, a line headed by the entry shows the natural chain unless it says otherwise.
UniProt Q8NEZ3: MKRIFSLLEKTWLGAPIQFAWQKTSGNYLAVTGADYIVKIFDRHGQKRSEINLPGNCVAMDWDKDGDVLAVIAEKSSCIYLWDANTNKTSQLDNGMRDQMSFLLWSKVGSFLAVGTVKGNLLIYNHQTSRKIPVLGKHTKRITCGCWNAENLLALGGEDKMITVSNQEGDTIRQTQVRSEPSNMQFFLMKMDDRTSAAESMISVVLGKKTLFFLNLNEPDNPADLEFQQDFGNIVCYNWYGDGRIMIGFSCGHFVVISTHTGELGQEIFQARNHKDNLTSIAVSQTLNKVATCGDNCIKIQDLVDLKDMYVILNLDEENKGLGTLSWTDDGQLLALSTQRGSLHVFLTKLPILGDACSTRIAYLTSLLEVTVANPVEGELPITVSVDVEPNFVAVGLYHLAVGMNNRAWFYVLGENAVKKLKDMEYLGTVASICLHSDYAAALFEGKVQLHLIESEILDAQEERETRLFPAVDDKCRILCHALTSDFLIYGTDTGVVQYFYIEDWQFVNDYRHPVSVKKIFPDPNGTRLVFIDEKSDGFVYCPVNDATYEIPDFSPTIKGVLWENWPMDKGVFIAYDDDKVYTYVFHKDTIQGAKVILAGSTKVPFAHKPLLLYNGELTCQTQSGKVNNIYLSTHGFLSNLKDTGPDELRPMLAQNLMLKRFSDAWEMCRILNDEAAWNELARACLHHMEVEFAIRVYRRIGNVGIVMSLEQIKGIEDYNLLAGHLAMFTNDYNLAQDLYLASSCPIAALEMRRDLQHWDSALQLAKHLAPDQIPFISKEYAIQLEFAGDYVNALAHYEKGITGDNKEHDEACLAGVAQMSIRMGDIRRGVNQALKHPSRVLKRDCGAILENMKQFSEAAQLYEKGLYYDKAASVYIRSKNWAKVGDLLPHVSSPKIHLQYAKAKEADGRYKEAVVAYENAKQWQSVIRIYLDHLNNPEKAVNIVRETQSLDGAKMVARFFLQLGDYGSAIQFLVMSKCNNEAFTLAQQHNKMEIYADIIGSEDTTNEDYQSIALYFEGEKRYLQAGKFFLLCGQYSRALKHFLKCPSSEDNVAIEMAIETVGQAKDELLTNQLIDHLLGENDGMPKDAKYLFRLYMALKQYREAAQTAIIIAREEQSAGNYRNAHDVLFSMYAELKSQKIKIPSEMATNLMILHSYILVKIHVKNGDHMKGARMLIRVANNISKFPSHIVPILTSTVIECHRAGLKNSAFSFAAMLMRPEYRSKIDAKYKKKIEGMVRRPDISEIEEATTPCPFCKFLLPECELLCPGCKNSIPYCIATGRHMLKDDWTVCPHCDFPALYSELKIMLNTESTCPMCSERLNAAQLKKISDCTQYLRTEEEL
UniProt Q8NFF5: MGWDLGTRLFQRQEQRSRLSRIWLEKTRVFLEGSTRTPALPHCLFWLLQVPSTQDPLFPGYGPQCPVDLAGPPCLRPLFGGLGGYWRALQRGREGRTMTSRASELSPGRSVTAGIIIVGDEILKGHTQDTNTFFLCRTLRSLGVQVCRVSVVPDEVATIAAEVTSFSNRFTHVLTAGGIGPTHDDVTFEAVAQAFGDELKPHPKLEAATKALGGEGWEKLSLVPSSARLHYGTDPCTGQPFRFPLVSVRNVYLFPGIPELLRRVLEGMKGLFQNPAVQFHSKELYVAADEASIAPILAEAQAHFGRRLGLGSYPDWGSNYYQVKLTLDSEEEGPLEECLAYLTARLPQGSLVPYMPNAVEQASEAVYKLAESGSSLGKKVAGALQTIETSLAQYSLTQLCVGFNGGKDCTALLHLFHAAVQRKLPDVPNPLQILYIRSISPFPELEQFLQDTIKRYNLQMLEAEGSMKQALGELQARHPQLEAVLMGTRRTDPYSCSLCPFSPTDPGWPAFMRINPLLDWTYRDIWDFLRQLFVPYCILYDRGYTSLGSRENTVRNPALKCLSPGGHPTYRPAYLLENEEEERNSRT
UniProt Q8WUD1: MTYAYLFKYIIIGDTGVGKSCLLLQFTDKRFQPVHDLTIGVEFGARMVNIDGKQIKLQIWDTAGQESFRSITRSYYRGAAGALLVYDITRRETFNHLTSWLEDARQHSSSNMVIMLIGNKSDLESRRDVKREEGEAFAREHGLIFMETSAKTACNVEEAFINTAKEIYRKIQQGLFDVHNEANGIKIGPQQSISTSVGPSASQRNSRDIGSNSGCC
UniProt Q8WZA9: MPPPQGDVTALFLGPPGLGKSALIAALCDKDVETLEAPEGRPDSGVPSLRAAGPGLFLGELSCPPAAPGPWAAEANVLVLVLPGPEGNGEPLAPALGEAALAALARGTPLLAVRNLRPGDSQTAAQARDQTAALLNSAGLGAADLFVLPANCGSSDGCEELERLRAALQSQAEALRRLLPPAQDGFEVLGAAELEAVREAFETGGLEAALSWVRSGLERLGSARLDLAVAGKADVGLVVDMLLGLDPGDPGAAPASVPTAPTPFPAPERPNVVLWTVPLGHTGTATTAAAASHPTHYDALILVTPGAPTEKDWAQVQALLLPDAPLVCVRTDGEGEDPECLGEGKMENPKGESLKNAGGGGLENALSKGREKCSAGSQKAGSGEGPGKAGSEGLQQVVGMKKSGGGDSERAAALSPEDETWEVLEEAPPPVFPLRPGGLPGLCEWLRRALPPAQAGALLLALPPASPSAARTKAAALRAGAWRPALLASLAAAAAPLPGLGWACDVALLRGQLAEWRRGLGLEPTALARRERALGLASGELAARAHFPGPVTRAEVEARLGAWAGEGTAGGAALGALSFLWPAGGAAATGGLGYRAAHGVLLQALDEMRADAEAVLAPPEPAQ
UniProt Q8TD30: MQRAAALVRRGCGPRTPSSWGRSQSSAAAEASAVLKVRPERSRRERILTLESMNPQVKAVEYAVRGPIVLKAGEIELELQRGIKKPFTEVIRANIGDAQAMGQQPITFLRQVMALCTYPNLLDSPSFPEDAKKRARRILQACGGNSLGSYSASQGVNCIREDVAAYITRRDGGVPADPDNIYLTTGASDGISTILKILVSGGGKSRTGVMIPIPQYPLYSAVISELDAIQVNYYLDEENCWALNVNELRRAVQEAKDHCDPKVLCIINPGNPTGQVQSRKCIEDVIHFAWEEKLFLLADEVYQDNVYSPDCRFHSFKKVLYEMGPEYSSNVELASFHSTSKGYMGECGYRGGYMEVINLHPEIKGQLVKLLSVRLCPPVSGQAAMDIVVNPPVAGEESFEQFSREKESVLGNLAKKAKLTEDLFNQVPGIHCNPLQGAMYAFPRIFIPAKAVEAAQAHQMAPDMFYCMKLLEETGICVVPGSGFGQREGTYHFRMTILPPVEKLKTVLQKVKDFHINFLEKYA
UniProt Q8N4Q0: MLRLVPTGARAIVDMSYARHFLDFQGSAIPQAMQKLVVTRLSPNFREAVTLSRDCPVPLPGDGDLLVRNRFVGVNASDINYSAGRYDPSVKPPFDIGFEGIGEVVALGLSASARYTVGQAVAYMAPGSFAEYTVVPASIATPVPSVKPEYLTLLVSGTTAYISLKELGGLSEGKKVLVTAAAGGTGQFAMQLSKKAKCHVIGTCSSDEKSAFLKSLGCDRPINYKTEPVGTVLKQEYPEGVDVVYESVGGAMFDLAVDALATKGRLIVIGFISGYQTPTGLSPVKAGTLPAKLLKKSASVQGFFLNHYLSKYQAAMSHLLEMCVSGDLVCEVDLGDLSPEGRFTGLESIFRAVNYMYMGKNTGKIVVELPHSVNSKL
UniProt Q8NB37: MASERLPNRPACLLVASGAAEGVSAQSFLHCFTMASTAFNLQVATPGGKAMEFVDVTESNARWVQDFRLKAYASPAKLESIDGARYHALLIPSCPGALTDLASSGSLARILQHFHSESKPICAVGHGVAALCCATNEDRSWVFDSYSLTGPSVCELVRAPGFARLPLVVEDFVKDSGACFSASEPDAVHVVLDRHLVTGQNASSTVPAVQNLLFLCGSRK
UniProt Q8IZH2: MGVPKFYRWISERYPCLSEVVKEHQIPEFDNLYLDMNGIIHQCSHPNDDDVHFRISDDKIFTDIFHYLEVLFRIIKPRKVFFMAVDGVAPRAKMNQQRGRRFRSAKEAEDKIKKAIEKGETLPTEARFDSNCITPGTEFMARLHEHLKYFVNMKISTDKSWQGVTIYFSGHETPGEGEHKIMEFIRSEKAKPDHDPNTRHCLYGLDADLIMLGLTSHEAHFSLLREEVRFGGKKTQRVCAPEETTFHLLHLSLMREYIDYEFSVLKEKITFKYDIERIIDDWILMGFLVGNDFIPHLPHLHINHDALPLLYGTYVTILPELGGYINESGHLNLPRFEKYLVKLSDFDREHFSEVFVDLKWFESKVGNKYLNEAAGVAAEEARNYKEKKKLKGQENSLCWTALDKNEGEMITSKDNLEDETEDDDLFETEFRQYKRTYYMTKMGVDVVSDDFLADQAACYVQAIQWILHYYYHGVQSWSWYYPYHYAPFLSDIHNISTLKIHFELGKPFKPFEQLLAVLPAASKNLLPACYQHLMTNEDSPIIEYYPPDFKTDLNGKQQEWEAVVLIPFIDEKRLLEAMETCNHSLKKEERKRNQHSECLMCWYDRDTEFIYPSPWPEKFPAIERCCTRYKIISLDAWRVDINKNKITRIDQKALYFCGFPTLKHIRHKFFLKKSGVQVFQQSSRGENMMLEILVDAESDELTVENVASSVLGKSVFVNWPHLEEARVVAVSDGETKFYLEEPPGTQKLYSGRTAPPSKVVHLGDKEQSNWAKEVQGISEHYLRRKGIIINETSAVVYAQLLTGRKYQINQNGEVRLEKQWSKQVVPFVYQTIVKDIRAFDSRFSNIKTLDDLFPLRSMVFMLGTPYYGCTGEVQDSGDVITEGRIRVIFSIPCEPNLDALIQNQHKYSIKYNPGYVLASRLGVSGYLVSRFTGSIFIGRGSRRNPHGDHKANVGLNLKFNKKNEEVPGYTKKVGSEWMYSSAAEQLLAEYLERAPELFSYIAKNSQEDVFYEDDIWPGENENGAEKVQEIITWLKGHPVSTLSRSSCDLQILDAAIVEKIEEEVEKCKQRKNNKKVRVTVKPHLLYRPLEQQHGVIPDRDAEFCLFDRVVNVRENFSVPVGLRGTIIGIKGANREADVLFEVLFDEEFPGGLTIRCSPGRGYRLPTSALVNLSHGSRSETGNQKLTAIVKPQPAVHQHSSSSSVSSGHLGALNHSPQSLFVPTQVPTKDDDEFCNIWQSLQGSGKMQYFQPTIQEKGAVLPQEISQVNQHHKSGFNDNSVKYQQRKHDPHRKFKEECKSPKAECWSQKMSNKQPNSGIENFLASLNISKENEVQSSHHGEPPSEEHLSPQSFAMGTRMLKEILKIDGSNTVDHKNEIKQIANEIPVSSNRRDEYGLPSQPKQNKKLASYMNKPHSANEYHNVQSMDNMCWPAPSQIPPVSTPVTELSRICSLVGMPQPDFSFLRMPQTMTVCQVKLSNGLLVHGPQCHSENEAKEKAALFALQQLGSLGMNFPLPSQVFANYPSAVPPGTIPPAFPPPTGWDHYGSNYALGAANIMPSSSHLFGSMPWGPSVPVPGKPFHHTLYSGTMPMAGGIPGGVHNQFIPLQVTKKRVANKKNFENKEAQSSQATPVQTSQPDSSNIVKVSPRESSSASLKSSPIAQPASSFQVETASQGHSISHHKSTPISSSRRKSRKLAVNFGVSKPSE
UniProt Q8TAG9: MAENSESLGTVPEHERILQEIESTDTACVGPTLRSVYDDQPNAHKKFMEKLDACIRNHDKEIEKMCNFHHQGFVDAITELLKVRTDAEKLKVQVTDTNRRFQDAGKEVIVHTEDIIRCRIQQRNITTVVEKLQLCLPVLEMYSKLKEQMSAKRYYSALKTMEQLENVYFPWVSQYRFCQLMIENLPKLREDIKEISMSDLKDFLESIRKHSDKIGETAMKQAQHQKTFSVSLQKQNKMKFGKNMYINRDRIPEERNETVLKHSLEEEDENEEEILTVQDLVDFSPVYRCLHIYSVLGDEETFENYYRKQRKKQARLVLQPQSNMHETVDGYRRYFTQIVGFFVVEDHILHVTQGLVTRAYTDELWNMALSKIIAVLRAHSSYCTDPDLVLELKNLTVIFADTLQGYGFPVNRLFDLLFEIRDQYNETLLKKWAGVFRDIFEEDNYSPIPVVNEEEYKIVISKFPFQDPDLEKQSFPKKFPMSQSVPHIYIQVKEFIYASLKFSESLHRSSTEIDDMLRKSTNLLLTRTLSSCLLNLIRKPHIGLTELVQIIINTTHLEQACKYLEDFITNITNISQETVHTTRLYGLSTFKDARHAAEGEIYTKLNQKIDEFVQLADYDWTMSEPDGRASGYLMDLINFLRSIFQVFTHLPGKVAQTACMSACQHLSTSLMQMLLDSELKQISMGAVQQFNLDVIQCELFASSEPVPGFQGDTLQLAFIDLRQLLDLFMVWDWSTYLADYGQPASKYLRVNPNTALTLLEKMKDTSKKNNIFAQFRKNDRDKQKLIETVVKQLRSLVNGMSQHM

Compound: COC(=O)C#Cc1ccccc1 [methyl 3-phenylpropiolate]
Assay: log2 ratio of iodoacetamide-alkyne labeling of the cysteine site, DMSO over compound (competition); higher = stronger covalent engagement of the cysteine by the compound, active = 1 or more
Conditions: 500 µM; treatment time 1 h; system: HEK293T cell lysate
How it was run: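 For each cysteine, the log2 competition ratio is mean control-channel reporter intensity over mean compound-channel reporter intensity. HEK293T lysate (2 mg/mL) was exposed to vehicle or electrophile (500 µM, 1 h, ambient temperature), labelled with iodoacetamide alkyne (1 h), clicked to sCIP-TMT reagents, digested overnight with trypsin at 37 °C, streptavidin-enriched and analysed by Orbitrap Eclipse LC-MS/MS with FAIMS and FragPipe. Cysteines quantified in only one of three replicates, each with duplicate channels, were excluded.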

| Target | log2 ratio of iodoacetamide-alkyne labeling |
| --- | --- |
| WDR19 C1332 (UniProt Q8NEZ3) | inactive: 0.441 |
| FLAD1 C496 (UniProt Q8NFF5) | active: 1.06 |
| PAF1 C36 (UniProt Q8N7H5) | inactive: 0.367 |
| PDCD6IP C512 (UniProt Q8WUM4) | inactive: 0.272 |
| RAB2B C154 (UniProt Q8WUD1) | inactive: 0.12 |
| UniProt Q8WZA9_C158 | inactive: 0.611 |
| GPT2 C158 (UniProt Q8TD30) | inactive: 0.269 |
| UniProt Q8NFC6_C1170 | inactive: 0.273 |
| SPATA5 C81 (UniProt Q8NB90) | inactive: 0.128 |
| SLC30A7 C308 (UniProt Q8NEW0) | inactive: 0.0935 |
| ZADH2 C55 (UniProt Q8N4Q0) | inactive: -0.176 |
| UniProt Q8NB37_C179 | inactive: 0.12 |
| STAG2 C915 (UniProt Q8N3U4) | inactive: 0.419 |
| THOC2 C743 (UniProt Q8NI27) | inactive: 0.442 |
| XRN1 C132 (UniProt Q8IZH2) | inactive: 0.261 |
| ARL6IP6 C48 (UniProt Q8N6S5) | inactive: 0.392 |
| CHTF18 C542 (UniProt Q8WVB6) | inactive: 0.274 |
| LPCAT1 C330 (UniProt Q8NF37) | inactive: 0.34 |
| CNNM3 C376 (UniProt Q8NE01) | inactive: 0.344 |
| EXOC6 C28 (UniProt Q8TAG9) | inactive: 0.489 |
| PLA2G15 C355 (UniProt Q8NCC3) | inactive: 0.436 |
| UniProt Q8NB37_C154 | inactive: 0.389 |

Look-ups from the list:
log2 ratio of iodoacetamide-alkyne labeling with WDR19 C1332 (UniProt Q8NEZ3) reads inactive: 0.441
log2 ratio of iodoacetamide-alkyne labeling with SLC30A7 C308 (UniProt Q8NEW0) reads inactive: 0.0935
